# Measured values: publication doi:10.1101/2024.03.13.584817 (bioRxiv, 2024)
# These are yes or no findings as the source states them, for the method shown. Some binding calls cover weakened binding; strength is not graded here. For part of these data: Tags and fused reporters may be left off the sequences shown.
# T1: dROS1 ECR construct 1-4 (126-1298), His-tagged (Drosophila) (UniProt P13368)
# T1 sequence: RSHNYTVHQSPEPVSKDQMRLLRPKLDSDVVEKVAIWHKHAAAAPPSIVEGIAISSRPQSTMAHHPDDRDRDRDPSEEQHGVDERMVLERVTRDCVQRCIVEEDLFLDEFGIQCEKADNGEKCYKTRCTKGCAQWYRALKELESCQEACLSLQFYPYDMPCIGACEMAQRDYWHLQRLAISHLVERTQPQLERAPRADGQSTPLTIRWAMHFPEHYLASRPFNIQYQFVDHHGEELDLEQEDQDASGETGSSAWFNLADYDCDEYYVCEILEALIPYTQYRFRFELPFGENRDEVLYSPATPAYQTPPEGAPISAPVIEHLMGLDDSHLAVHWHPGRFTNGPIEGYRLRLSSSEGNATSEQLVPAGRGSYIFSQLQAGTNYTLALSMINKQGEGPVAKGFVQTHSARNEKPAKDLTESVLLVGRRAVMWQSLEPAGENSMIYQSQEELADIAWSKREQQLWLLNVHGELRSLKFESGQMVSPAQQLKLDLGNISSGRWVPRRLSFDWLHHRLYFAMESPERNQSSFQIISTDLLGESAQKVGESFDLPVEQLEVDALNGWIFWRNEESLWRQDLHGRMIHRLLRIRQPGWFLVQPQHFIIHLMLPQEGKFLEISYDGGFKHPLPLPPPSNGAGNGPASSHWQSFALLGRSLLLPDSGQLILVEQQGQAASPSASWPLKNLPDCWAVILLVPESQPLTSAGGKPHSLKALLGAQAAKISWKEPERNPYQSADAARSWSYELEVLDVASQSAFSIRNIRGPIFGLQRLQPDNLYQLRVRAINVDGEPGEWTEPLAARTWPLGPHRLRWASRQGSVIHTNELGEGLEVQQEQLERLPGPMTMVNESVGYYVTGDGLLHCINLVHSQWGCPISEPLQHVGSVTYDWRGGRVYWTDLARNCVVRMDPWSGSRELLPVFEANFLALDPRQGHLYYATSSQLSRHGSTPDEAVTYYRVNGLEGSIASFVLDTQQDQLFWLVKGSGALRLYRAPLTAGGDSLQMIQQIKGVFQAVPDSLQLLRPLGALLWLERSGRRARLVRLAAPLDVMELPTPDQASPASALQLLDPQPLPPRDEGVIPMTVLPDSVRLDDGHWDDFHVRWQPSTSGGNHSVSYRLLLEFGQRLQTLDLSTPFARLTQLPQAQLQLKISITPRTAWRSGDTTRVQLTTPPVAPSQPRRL
# T2: dROS1 ECR construct 2-3 (440-931), His-tagged (Drosophila) (UniProt P13368)
# T2 sequence: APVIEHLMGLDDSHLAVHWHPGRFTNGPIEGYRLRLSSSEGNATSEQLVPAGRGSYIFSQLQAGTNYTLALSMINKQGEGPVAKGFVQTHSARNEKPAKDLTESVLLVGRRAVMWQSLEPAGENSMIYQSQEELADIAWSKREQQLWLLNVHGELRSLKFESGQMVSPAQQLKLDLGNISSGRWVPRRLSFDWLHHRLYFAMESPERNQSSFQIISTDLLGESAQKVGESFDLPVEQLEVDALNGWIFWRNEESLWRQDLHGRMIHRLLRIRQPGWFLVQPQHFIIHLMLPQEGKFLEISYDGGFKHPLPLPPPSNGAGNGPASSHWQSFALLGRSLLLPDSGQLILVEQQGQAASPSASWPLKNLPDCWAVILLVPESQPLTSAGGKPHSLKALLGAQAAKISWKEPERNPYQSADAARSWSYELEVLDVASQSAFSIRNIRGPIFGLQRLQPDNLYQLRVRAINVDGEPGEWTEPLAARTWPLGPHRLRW
# What was measured:
# [1] = molecular target: T1, dROS1 ECR construct 1-4 (126-1298), His-tagged (Drosophila); experiment: HDX-MS
# [2] = molecular target: T2, dROS1 ECR construct 2-3 (440-931), His-tagged (Drosophila); experiment: BLI
# [3] = molecular target: T2, dROS1 ECR construct 2-3 (440-931), His-tagged (Drosophila); experiment: SPR
# HDX-MS = substrate: T3, BOSS ECR (102-510), His-tagged (Drosophila) (UniProt P22815); experiment: HDX-MS
# T3 sequence: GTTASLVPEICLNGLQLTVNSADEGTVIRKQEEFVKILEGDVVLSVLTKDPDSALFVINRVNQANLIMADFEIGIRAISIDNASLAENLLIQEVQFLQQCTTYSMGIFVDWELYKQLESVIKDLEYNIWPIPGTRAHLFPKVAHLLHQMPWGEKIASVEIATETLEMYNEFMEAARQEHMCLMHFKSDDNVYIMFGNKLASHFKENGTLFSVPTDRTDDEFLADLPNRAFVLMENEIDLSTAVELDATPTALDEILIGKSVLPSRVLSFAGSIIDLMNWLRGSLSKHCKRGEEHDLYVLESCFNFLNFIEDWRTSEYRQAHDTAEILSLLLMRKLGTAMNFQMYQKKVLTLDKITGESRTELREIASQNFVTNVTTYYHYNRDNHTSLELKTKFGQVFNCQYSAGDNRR
# [4] = molecular target: dROS1 ECR construct 1-9 (126-2113) (Drosophila, UniProt P13368 126-2113); experiment: SPR
binder,measurement,setting,value
"BOSS ECR (102-510), His-tag cleaved (domain or fragment, Drosophila, UniProt P22815 102-510, looked up) GTTASLVPEICLNGLQLTVNSADEGTVIRKQEEFVKILEGDVVLSVLTKDPDSALFVINRVNQANLIMADFEIGIRAISIDNASLAENLLIQEVQFLQQCTTYSMGIFVDWELYKQLESVIKDLEYNIWPIPGTRAHLFPKVAHLLHQMPWGEKIASVEIATETLEMYNEFMEAARQEHMCLMHFKSDDNVYIMFGNKLASHFKENGTLFSVPTDRTDDEFLADLPNRAFVLMENEIDLSTAVELDATPTALDEILIGKSVLPSRVLSFAGSIIDLMNWLRGSLSKHCKRGEEHDLYVLESCFNFLNFIEDWRTSEYRQAHDTAEILSLLLMRKLGTAMNFQMYQKKVLTLDKITGESRTELREIASQNFVTNVTTYYHYNRDNHTSLELKTKFGQVFNCQYSAGDNRR",binding,[1],binds weakly
same,binding,[2],binds weakly
same,binding,[3],binds weakly
"BOSS ECR Δ117-130 (domain or fragment, UniProt P22815) GTTASLVPEICLNGLKQEEFVKILEGDVVLSVLTKDPDSALFVINRVNQANLIMADFEIGIRAISIDNASLAENLLIQEVQFLQQCTTYSMGIFVDWELYKQLESVIKDLEYNIWPIPGTRAHLFPKVAHLLHQMPWGEKIASVEIATETLEMYNEFMEAARQEHMCLMHFKSDDNVYIMFGNKLASHFKENGTLFSVPTDRTDDEFLADLPNRAFVLMENEIDLSTAVELDATPTALDEILIGKSVLPSRVLSFAGSIIDLMNWLRGSLSKHCKRGEEHDLYVLESCFNFLNFIEDWRTSEYRQAHDTAEILSLLLMRKLGTAMNFQMYQKKVLTLDKITGESRTELREIASQNFVTNVTTYYHYNRDNHTSLELKTKFGQVFNCQYSAGDNRR",binding,[2],binds weakly
"dROS1 ECR construct 1-4 (126-1298) without his-tag (domain or fragment, UniProt P13368 126-1298) RSHNYTVHQSPEPVSKDQMRLLRPKLDSDVVEKVAIWHKHAAAAPPSIVEGIAISSRPQSTMAHHPDDRDRDRDPSEEQHGVDERMVLERVTRDCVQRCIVEEDLFLDEFGIQCEKADNGEKCYKTRCTKGCAQWYRALKELESCQEACLSLQFYPYDMPCIGACEMAQRDYWHLQRLAISHLVERTQPQLERAPRADGQSTPLTIRWAMHFPEHYLASRPFNIQYQFVDHHGEELDLEQEDQDASGETGSSAWFNLADYDCDEYYVCEILEALIPYTQYRFRFELPFGENRDEVLYSPATPAYQTPPEGAPISAPVIEHLMGLDDSHLAVHWHPGRFTNGPIEGYRLRLSSSEGNATSEQLVPAGRGSYIFSQLQAGTNYTLALSMINKQGEGPVAKGFVQTHSARNEKPAKDLTESVLLVGRRAVMWQSLEPAGENSMIYQSQEELADIAWSKREQQLWLLNVHGELRSLKFESGQMVSPAQQLKLDLGNISSGRWVPRRLSFDWLHHRLYFAMESPERNQSSFQIISTDLLGESAQKVGESFDLPVEQLEVDALNGWIFWRNEESLWRQDLHGRMIHRLLRIRQPGWFLVQPQHFIIHLMLPQEGKFLEISYDGGFKHPLPLPPPSNGAGNGPASSHWQSFALLGRSLLLPDSGQLILVEQQGQAASPSASWPLKNLPDCWAVILLVPESQPLTSAGGKPHSLKALLGAQAAKISWKEPERNPYQSADAARSWSYELEVLDVASQSAFSIRNIRGPIFGLQRLQPDNLYQLRVRAINVDGEPGEWTEPLAARTWPLGPHRLRWASRQGSVIHTNELGEGLEVQQEQLERLPGPMTMVNESVGYYVTGDGLLHCINLVHSQWGCPISEPLQHVGSVTYDWRGGRVYWTDLARNCVVRMDPWSGSRELLPVFEANFLALDPRQGHLYYATSSQLSRHGSTPDEAVTYYRVNGLEGSIASFVLDTQQDQLFWLVKGSGALRLYRAPLTAGGDSLQMIQQIKGVFQAVPDSLQLLRPLGALLWLERSGRRARLVRLAAPLDVMELPTPDQASPASALQLLDPQPLPPRDEGVIPMTVLPDSVRLDDGHWDDFHVRWQPSTSGGNHSVSYRLLLEFGQRLQTLDLSTPFARLTQLPQAQLQLKISITPRTAWRSGDTTRVQLTTPPVAPSQPRRL",binding,HDX-MS,binds weakly
"BOSSDEQ (domain or fragment, UniProt P22815 102-510) GTTASLVPEICLNGLQLTVNSADEGTVIRKQEEFVKILEGDVVLSVLTKDPDSALFVINRVNQANLIMADFEIGIRAISIDNASLAENLLIQEVQFLQQCTTYSMGIFVDWELYKQLESVIKDLEYNIWPIPGTRAHLFPKVAHLLHQMPWGEKIASVEIATETLEMYNEFMEAARQEHMCLMHFKSDDNVYIMFGNKLASHFKENGTLFSVPTDRTDDEFLADLPNRAFVLMENEIDLSTAVELDATPTALDEILIGKSVLPSRVLSFAGSIIDLMNWLRGSLSKHCKRGEEHDLYVLESCFNFLNFIEDWRTSEYRQAHDTAEILSLLLMRKLGTAMNFQMYQKKVLTLDKITGESRTELREIASQNFVTNVTTYYHYNRDNHTSDEQKTKFGQVFNCQYSAGDNRR",binding,[4],no binding
